# Experimental data from article PMC7862700.
# This is a selection; strong and weak results do not stand in their true shares. For some assays here: At the low end of the ranking the order means little. Some of the results follow. For some assays here: The exact form of the protein is not confirmed.
# Target: T1, GABPA (UniProt Q06546)
# T1 sequence: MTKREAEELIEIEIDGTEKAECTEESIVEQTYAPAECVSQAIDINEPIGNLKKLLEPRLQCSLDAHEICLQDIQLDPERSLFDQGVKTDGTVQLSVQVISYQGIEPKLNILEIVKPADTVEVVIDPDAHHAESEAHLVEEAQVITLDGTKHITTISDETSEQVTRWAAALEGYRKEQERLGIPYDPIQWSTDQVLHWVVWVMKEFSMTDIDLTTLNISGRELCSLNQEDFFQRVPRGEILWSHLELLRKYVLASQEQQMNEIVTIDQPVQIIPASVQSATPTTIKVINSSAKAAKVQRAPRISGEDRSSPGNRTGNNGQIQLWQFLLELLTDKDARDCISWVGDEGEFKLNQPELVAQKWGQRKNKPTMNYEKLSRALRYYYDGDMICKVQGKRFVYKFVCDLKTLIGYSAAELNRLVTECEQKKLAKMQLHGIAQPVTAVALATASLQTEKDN
# Test: DAPPL (digital affinity profiling via proximity ligation, sequencing)
# Conditions: 10 mM Tris-HCl pH 7.5, 50 mM NaCl, 1 mM DTT, 4% glycerol, room temperature, 30 min; GST-TFs on glutathione beads, 16-mer random dsDNA library, 0.1% …; high values mean tight binding; double strand, one strand shown; scale: fold enrichment (6-mer frequency, TF over GST control)
row,Sequence,binding signal
1,CAAATC,0.994
2,GAAAAC,1.05
3,GGATTC,0.891
4,TAGGGT,1.11
5,CCTTAA,1.27
6,TAGTTC,1.28
7,GCCACT,1.16
8,GCTAGC,1.18
9,CCCATC,1.17
10,CCATCT,1.32
11,CAACCT,1.23
12,AGTCCT,0.978
13,TAGCAT,1.05
14,ATTACT,1.29
15,TTTCCA,1.39
16,CACGGC,0.923
17,GCCCCA,0.985
18,TAGACA,1.01
19,TGCGCA,1.07
20,TCATCC,1.39

row,Sequence,binding signal
1,ACGGTA,0.929
2,CACACA,1.14
3,CTACGG,1.22
4,GCGACA,0.961
5,TGCCTT,1.54
6,TGCATC,1.38
7,CAAGTT,0.989
8,CGAAAT,0.98
9,CGTATC,1.29
10,CCGACG,1.27
11,CAATTA,1.1
12,CGGATT,0.96
13,TGGCAT,1.2
14,TATAGC,1.26
15,GAAAAT,1.16
16,CACGTA,1.23
17,TATGAT,1.22
18,AAGAAC,1.15
19,CTTTAT,1.18
20,CATTCG,1.17

# Target: T2, ETS1 (UniProt P14921)
# T2 sequence: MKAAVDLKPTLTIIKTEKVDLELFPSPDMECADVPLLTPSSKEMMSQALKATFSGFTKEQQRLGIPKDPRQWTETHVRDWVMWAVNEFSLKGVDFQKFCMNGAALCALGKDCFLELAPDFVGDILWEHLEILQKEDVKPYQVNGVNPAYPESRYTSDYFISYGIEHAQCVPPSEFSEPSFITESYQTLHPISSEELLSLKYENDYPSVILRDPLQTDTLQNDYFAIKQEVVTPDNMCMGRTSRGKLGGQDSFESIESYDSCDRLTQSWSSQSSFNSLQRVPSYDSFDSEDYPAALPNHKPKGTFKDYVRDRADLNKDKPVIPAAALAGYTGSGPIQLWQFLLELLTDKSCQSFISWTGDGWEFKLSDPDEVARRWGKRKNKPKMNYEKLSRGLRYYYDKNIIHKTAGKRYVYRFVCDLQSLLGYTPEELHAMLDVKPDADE
# Test: as above
# Conditions: 10 mM Tris-HCl pH 7.5, 50 mM NaCl, 1 mM DTT, 4% glycerol, room temperature, 30 min; GST-TFs on glutathione beads, 16-mer random dsDNA library, 0.1% …; high values mean tight binding; double strand, one strand shown; scale: fold enrichment (6-mer frequency, TF over GST control)
row,Sequence,binding signal
1,CAAATC,1.13
2,GAAAAC,1.13
3,GGATTC,0.897
4,TAGGGT,1.09
5,CCTTAA,1.41
6,TAGTTC,1.36
7,GCCACT,1.21
8,GCTAGC,1.28
9,CCCATC,1.18
10,CCATCT,1.34
11,CAACCT,1.21
12,AGTCCT,1.07
13,TAGCAT,1.06
14,ATTACT,1.21
15,TTTCCA,1.4
16,CACGGC,0.938
17,GCCCCA,1.02
18,TAGACA,0.935
19,TGCGCA,1.14
20,TCATCC,1.33

row,Sequence,binding signal
1,ACGGTA,0.942
2,CACACA,1.17
3,CTACGG,1.21
4,GCGACA,0.948
5,TGCCTT,1.34
6,TGCATC,1.27
7,CAAGTT,1.09
8,CGAAAT,1.12
9,CGTATC,1.12
10,CCGACG,1.26
11,CAATTA,1.17
12,CGGATT,0.883
13,TGGCAT,1.19
14,TATAGC,1.17
15,GAAAAT,1.15
16,CACGTA,1.1
17,TATGAT,1.23
18,AAGAAC,1.16
19,CTTTAT,1.21
20,CATTCG,1.25
